From article PMC4848489
Results are given in words; binding and its absence hold for the method and conditions named. In cells and extracts the contact can be indirect. A result given as binding can be weak or reduced; the word gives no strength. Sequences can lack the tags named with a protein.

Target: T1, ARLPK1-interacting receptor-like kinase 1 (AKIK1), FLAG-tagged (Arabidopsis) (UniProt C0LGW2)
T1 sequence: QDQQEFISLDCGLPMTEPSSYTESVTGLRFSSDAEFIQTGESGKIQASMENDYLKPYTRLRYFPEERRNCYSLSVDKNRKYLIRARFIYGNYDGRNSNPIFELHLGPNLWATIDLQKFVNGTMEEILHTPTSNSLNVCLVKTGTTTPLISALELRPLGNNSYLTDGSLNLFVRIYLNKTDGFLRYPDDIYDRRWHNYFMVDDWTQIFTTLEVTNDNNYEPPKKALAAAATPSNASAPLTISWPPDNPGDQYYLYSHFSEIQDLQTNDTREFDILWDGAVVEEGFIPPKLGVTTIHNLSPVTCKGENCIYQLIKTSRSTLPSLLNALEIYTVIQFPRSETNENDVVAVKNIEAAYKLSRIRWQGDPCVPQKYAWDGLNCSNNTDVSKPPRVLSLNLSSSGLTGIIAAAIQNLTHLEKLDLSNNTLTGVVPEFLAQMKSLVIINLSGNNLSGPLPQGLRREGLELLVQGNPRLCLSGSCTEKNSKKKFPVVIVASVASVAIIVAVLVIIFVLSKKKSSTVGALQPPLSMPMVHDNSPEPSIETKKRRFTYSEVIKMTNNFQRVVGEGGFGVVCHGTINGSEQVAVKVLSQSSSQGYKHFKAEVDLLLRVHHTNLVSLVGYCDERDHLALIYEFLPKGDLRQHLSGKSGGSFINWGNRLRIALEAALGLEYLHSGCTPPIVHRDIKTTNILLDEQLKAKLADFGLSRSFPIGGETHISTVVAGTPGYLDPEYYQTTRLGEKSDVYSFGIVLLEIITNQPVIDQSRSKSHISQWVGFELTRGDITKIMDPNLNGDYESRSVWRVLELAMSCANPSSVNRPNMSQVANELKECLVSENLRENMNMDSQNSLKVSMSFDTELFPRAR
Assay: co-IP; transient co-expression in N. benthamiana leaves; total proteins from extracts immunoprecipitated with ANTI-FLAG M2 affinity gel; western blot with anti-FLAG and anti-YFP antibodies

## atypical receptor-like pseudokinase 1 (ARLPK1), YFP-tagged (Arabidopsis)
  binding: binds

## atypical receptor-like pseudokinase 2 (ARLPK2), YFP-tagged (Arabidopsis)
  binding: no binding
